The results in this text go back to PMC4932730.

Amino acid sequences for entries named in this document (tags omitted).
UniProt P46937: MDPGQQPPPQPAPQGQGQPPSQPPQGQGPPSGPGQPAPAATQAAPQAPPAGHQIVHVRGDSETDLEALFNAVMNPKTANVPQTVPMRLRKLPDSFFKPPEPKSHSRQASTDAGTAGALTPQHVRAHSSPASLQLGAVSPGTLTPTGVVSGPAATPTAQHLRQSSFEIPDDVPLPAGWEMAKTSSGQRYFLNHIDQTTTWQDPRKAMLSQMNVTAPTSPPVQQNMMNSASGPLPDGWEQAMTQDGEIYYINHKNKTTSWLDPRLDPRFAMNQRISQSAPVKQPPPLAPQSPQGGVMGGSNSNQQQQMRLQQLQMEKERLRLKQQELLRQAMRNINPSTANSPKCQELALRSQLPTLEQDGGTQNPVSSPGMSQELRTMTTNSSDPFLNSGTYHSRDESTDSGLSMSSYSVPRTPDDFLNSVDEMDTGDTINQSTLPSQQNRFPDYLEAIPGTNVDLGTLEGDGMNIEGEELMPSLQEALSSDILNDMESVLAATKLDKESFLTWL
UniProt P62136: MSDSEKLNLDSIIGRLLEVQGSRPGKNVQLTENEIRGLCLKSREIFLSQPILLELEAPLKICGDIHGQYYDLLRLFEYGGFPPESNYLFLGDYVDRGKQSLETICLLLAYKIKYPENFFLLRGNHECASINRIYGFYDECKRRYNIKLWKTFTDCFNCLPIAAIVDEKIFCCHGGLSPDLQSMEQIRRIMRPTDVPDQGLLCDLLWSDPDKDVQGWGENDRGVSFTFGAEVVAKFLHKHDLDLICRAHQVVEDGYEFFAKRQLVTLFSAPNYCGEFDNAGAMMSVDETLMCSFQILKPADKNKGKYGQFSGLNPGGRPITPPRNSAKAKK
UniProt A0A8C0NGY6: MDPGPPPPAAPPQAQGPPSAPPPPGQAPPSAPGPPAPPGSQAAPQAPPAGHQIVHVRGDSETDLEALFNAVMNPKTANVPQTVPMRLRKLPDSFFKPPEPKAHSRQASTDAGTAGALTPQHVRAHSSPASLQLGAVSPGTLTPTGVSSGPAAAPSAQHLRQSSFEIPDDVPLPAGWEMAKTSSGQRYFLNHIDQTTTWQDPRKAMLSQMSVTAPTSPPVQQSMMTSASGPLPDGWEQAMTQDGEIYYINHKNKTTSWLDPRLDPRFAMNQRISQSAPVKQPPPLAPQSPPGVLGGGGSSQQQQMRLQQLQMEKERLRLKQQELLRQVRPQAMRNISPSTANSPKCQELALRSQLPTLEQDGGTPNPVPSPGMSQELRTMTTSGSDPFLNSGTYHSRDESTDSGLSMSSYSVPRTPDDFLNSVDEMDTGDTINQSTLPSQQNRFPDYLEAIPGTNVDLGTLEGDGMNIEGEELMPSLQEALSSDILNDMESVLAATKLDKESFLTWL

These are yes or no findings as the source states them, for the method shown. In cells and extracts the contact can be indirect. Some results given as binding are weak or reduced against the parent protein; the word gives no strength. For part of these data: Tags and fused reporters may be left off the sequences shown.

Assay [1] deals with T1, endogenous LATS1 of 293T cells (human (endogenous in 293T)) (UniProt O95835).
T1 sequence: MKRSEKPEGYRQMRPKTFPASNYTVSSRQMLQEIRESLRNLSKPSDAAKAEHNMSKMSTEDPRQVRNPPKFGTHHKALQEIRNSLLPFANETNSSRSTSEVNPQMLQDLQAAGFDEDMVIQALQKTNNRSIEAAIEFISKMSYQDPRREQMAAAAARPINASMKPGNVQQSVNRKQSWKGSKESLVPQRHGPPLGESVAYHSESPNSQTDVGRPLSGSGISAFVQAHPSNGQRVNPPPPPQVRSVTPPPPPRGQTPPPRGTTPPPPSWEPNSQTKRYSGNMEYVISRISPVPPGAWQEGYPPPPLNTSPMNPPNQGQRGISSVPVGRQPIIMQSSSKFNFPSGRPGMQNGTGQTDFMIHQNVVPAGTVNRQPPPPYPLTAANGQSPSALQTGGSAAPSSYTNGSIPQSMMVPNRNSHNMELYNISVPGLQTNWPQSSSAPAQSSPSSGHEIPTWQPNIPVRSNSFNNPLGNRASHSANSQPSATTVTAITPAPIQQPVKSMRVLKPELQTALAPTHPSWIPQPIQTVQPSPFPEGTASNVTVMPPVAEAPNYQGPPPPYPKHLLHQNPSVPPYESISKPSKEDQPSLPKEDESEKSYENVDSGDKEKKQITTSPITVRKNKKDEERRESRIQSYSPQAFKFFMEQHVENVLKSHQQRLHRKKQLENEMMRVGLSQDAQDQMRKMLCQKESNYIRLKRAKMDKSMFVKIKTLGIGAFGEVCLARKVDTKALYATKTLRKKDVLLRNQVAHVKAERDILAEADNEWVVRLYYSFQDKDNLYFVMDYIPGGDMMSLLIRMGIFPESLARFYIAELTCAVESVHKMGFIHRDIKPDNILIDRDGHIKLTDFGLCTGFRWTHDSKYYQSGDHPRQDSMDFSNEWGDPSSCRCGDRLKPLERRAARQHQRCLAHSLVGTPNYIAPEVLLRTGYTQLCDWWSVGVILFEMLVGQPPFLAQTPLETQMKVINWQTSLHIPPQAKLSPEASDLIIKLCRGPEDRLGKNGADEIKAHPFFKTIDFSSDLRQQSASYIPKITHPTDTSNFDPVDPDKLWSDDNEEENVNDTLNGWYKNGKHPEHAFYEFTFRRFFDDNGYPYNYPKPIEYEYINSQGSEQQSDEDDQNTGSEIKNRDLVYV
Kind of assay: co-IP; endogenous proteins of 293T cells at low cell density; IP with anti-YAP antibodies (cells transfected with FLAG-Par3) or anti-LATS1 antibodies (cells transfected with siPar3); western blot.

Assay [2] deals with endogenous YAP of 293T cells (human (endogenous in 293T)) (UniProt P46937). The description is as above.
Assay [3] deals with endogenous YAP of MDCK II cells (dog (endogenous in MDCK II)). Kind of assay: co-IP; nuclear and cytoplasmic fractions of MDCK II cells at low cell density; IP with anti-YAP or anti-LATS1 antibodies; western blot.
For assay [4], the target named is hemagglutinin (HA)-tagged YAP (Yes-associated protein) (UniProt P46937). As to the kind of experiment: co-IP; 293T cells transiently transfected with tagged constructs; lysis in RIPA buffer; IP and reverse IP with anti-FLAG or anti-HA antibodies and protein A/G beads overnight at 4 °C; western blot.
The target of assay [5] is endogenous LATS1 of MDCK II cells (dog (endogenous in MDCK II)). As to the kind of experiment: co-IP; nuclear and cytoplasmic fractions of MDCK II cells at low cell density; IP with anti-YAP or anti-LATS1 antibodies; western blot.
Assay [6] concerns the target T2, FLAG-LATS1 (large tumor suppressor kinase 1) (UniProt O95835).
T2 sequence: T1 sequence
As to the kind of experiment: co-IP; 293T cells transiently transfected with tagged constructs; lysis in RIPA buffer; IP and reverse IP with anti-FLAG or anti-HA antibodies and protein A/G beads overnight at 4 °C; western blot.

Assay [7] concerns the target FLAG-PP1A (protein phosphatase 1, α subunit) (UniProt P62136). Described as above.
Assay [8] has as its target FLAG-tagged Par3 (partitioning-defective 3), long form (180 kDa form) (human) (UniProt Q8TEW0). The assay is described as above.
For assay [9], the target named is T3, GST-tagged PDZ3 domain of Par3 (577–694 aa) (human) (UniProt Q8TEW0).
T3 sequence: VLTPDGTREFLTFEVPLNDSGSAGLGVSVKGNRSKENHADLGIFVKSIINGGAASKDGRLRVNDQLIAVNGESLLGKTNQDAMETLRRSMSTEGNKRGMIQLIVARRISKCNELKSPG
As to the kind of experiment: pull-down; 3 μg purified GST fusion protein on glutathione 4B beads incubated with lysate of 293T cells transfected with HA-YAP; lysis buffer 50 mM HEPES pH 7.5, 1% Triton X-100, 150 mM NaCl; washed with HNTG buffer; only the target purified.

“endogenous PP1A of 293T cells (from UniProt P62136 1-330) (enzyme)”: the binding entry in [1] and in [2] was “binds” throughout.

For the substance “endogenous LATS1 of MDCK II cells (from UniProt A0A8I3S3J7 1-1127) (enzyme)”, the binding result in assay [3] is “binds”.

In the case of “FLAG-tagged Par3 (partitioning-defective 3), long form (180 kDa form) (from UniProt Q8TEW0 1-1356)”, the binding entry in [4] is “binds”.

As to “endogenous YAP of MDCK II cells (from UniProt A0A8C0NGY6 1-506)”, the binding result in assay [5] is on record as “binds”.

With GFP-Par3 (from UniProt Q8TEW0 1-1356), the binding result in assay [6] and in assay [7] was “binds” throughout.

Turning to “hemagglutinin (HA)-tagged YAP (Yes-associated protein) (from UniProt P46937 1-504)”, the binding result in assay [8] and in assay [9] was “binds” in each case.
